Patent publication US20120121591A1 (priority 2009, published 2012)
At least one peptide structure holds a part that was inferred or is arguable (an end, a ring closure or a residue). Some results were stated once for a whole list of compounds, not compound by compound. Positions of bridges follow the written chain, without caps; N, C: chain ends. Residues, ends and D or L forms follow the SMILES beside them.

Sequences of proteins named here, by UniProt entry; tags and fusion partners are left off.
UniProt P22001, whole entry: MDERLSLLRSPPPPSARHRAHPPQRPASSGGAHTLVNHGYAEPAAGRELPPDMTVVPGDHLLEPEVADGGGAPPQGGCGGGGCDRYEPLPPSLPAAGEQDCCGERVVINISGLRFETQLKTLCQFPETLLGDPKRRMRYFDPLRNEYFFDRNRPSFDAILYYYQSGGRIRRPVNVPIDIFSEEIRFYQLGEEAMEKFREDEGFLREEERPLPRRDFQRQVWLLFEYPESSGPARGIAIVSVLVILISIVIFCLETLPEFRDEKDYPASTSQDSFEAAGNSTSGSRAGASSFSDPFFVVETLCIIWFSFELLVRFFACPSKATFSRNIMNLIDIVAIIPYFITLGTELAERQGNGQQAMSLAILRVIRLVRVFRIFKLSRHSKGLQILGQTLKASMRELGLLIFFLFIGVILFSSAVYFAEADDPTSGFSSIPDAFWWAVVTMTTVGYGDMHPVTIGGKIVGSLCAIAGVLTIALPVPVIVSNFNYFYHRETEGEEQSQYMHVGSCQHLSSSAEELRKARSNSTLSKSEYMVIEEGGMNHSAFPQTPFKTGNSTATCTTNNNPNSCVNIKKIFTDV
UniProt Q09470, whole entry: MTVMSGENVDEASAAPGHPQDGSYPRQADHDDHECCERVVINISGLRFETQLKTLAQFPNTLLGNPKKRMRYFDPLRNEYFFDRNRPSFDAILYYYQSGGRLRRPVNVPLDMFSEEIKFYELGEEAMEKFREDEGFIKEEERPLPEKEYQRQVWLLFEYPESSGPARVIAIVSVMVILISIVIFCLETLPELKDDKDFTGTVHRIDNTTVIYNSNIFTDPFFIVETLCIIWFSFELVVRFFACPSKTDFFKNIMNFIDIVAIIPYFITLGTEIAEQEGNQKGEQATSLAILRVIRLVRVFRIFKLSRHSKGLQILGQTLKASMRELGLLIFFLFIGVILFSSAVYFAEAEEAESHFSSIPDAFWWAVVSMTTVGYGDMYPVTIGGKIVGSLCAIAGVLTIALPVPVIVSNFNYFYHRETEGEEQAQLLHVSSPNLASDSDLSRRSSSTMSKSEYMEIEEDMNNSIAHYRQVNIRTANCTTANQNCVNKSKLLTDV

What was measured:
Format in all cases: cell-based
[1] = test system: IL-2 secretion from T cells in human whole blood; conditions: for IC50: read-out: WB (IL-2) IC50 (nM, Avg)
[2] = test system: IFN-g secretion from T cells in human whole blood; conditions: for IC50: read-out: WB (IFNg) IC50 (nM, Avg)
hKv1.3 = hKv1.3 (Homo sapiens, UniProt P22001); conditions: read-out: Kv1.3 (IWQ) IC50 (nM, Avg)
hKv1.1 = hKv1.1 (Homo sapiens, UniProt Q09470); conditions: read-out: Kv1.1 (IWQ) IC50 (nM, Avg)

Compound: CC[C@H](C)[C@@H]1NC(=O)[C@@H](NC(=O)[C@H](CO)NC(=O)[C@@H](N)CCCNC(=N)N)CSSC[C@@H](C(=O)O)NC(=O)[C@H]([C@@H](C)O)NC(=O)CNC(=O)[C@@H]2CSSC[C@@H]3NC(=O)[C@H](CCC(N)=O)NC(=O)[C@H](Cc4ccccc4)NC(=O)[C@H](C)NC(=O)[C@H]([C@@H](C)O)NC(=O)[C@H](CSSC[C@H](NC(=O)[C@H](Cc4ccccc4)NC(=O)[C@H](CO)NC(=O)[C@H](CC(C)C)NC(=O)[C@H](CCCNC(=N)N)NC(=O)[C@H](C)NC(=O)[C@H](CCCCN)NC(=O)[C@H](CCSC)NC(=O)[C@H](CO)NC(=O)[C@H](Cc4c[nH]cn4)NC(=O)[C@H](CCCCN)NC3=O)C(=O)N[C@@H](CCCNC(=N)N)C(=O)N[C@@H](CCCCN)C(=O)N[C@@H]([C@@H](C)O)C(=O)N2)NC(=O)[C@H](CCCNC(=N)N)NC(=O)[C@H](CO)NC(=O)[C@H](CCCCN)NC(=O)[C@@H]2CCCN2C(=O)[C@H]([C@@H](C)CC)NC(=O)[C@H]([C@@H](C)O)NC(=O)[C@H](CC(=O)O)NC1=O [Tyr23(A)]
- Times less active than native ShK in the human whole blood assay [1]: 35-56 times

Compound: CC[C@H](C)[C@@H]1NC(=O)[C@H](CCCCN)NC(=O)[C@@H](NC(=O)[C@H](CCCCN)NC(=O)[C@@H](NC(=O)[C@H](CC(N)=O)NC(=O)[C@@H](NC(=O)[C@@H](NC(=O)[C@@H](NC(=O)CN)C(C)C)[C@@H](C)CC)[C@@H](C)CC)C(C)C)CSSC[C@@H]2NC(=O)[C@H](CCCCN)NC(=O)CNC(=O)[C@H](Cc3ccccc3)NC(=O)[C@H](CCCNC(=N)N)NC(=O)[C@H](CCSC)NC(=O)CNC(=O)[C@H](C)NC(=O)[C@H](CCCCN)NC(=O)[C@H](CCCCN)NC(=O)[C@@H]3CSSC[C@@H](C(=O)N[C@H](C(=O)N4CCC[C@H]4C(=O)N[C@@H](CCCCN)C(=O)O)[C@@H](C)O)NC(=O)[C@H](C)NC(=O)[C@H](CSSC[C@H](NC(=O)[C@H](CCC(N)=O)NC(=O)[C@H](CCCNC(=N)N)NC(=O)[C@H](CO)NC1=O)C(=O)N[C@@H](CC(C)C)C(=O)N[C@@H](CCC(=O)O)C(=O)N1CCC[C@H]1C(=O)N3)NC(=O)[C@H](CCCCN)NC(=O)CNC(=O)[C@H](CC(N)=O)NC(=O)[C@H](CCSC)NC2=O [[Ala34]Osk-1, reference compound] (H-GVIINVKCKISRQCLEPCKKAGMRFGKCMNGKCACTPK-OH; disulfide 8-28, 14-33, 18-35)
- WB (IFNg) Potency Relative to ShK [2]: 1.42
- IC50 [2]: 0.074 nM
- WB (IL-2) Potency Relative to ShK [1]: 1.21
- IC50 [1]: 0.052 nM
- IC50 (hKv1.3): 0.1 nM
- IC50 (hKv1.1): 1.07 nM

Compound: CC[C@H](C)[C@@H]1NC(=O)[C@@H](NC(=O)[C@H](CO)NC(=O)[C@@H](N)CCCNC(=N)N)CSSC[C@@H](C(N)=O)NC(=O)[C@H]([C@@H](C)O)NC(=O)CNC(=O)[C@@H]2CSSC[C@@H]3NC(=O)[C@H](CCCCN)NC(=O)[C@H](Cc4ccccc4)NC(=O)[C@H](C)NC(=O)[C@H]([C@@H](C)O)NC(=O)[C@H](CSSC[C@H](NC(=O)[C@H](Cc4ccccc4)NC(=O)[C@H](CO)NC(=O)[C@H](CC(C)C)NC(=O)[C@H](CCCNC(=N)N)NC(=O)[C@H](Cc4ccc(O)cc4)NC(=O)[C@H](CCCCN)NC(=O)[C@@H]4C[C@@H](O)CN4C(=O)[C@H](CO)NC(=O)[C@H](Cc4c[nH]cn4)NC(=O)[C@H](CCCCN)NC3=O)C(=O)N[C@@H](CCCNC(=N)N)C(=O)N[C@@H](CCCCN)C(=O)N[C@@H]([C@@H](C)O)C(=O)N2)NC(=O)[C@H](CCCNC(=N)N)NC(=O)[C@H](CO)NC(=O)[C@H](CCCCN)NC(=O)[C@@H]2CCCN2C(=O)[C@H]([C@@H](C)CC)NC(=O)[C@H]([C@@H](C)O)NC(=O)[C@H](CC(=O)O)NC1=O [[Lys16, Hyp21]ShK-amide]
- WB (IFNg) Potency Relative to ShK [2]: 1923.08
- IC50 [2]: ≥ 100 nM
- WB (IL-2) Potency Relative to ShK [1]: 2325.58
- IC50 [1]: ≥ 100 nM
- IC50 (hKv1.3): 3.3 nM
- IC50 (hKv1.1): ≥ 3.3 nM
